Reference: patent publication EP3461488A1, “COMBINATION OF A DBAIT MOLECULE AND A HDAC INHIBITOR FOR TREATING CANCER” (ONXEO, priority 2017, dated 2019)

How the values were obtained:
[1] = test system: histiocytic lymphoma cell line U937; assay: XTT cell survival assay and combination index analysis, U937; format: cell-based; settings: Homo sapiens, U-937, XTT assay, monotherapy, increasing concentrations for 4 to 7 days, dose at which 50% of the cells are viable
[2] = test system: triple negative breast cancer cell line MDA-MB-231; assay: XTT cell survival assay and combination index analysis, MDA-MB-231; format: cell-based; settings: Homo sapiens, XTT assay, monotherapy, increasing concentrations for 4 to 7 days, dose at which 50% of the cells are viable

## O=C(CCCCCCC(=O)Nc1ccccc1)NO [Vorinostat, N-hydroxy-N'-phenyloctanediamide]
[1]
  IC50: 600 nM
[2]
  IC50: 1500 nM
